Reference: patent US20200405867A1, “ORAL DOSAGE FORMS” (Sunovion Pharmaceuticals Inc., priority 2018, published 2020)

Assay: human taste study of dasotraline capsule contents, Flavor Profile Method (adult panel)
Assay type: in vivo

N[C@@H]1CC[C@@H](c2ccc(Cl)c(Cl)c2)c2ccccc21 [dasotraline, (1R,4S)-4-(3,4-dichlorophenyl)-1,2,3,4-tetrahydronaphthalen-1-amine]
tongue sting and metallic aromatics, time lingered (2 mg capsule contents): 3 min | bitter basic taste, persistence in aftertaste (2 mg capsule contents, 10 s in mouth): lingered at patient-perceptible levels for the first five minutes of aftertaste | flavor profile compared with 2 mg capsule (4 mg capsule contents): more intense and lingered longer at patient-perceptible levels | flavor profile compared with 4 mg capsule (6 mg capsule and 8 mg capsule contents): persisted at patient-perceptible intensities for longer periods of time | natural taste / paresthesic feeling in the tongue (in vivo): naturally bitter taste
